# Laboratory results taken from publication PMC11115335.
# The chains behind the UniProt entries cited, without tags or fusion partners.
# UniProt P41233: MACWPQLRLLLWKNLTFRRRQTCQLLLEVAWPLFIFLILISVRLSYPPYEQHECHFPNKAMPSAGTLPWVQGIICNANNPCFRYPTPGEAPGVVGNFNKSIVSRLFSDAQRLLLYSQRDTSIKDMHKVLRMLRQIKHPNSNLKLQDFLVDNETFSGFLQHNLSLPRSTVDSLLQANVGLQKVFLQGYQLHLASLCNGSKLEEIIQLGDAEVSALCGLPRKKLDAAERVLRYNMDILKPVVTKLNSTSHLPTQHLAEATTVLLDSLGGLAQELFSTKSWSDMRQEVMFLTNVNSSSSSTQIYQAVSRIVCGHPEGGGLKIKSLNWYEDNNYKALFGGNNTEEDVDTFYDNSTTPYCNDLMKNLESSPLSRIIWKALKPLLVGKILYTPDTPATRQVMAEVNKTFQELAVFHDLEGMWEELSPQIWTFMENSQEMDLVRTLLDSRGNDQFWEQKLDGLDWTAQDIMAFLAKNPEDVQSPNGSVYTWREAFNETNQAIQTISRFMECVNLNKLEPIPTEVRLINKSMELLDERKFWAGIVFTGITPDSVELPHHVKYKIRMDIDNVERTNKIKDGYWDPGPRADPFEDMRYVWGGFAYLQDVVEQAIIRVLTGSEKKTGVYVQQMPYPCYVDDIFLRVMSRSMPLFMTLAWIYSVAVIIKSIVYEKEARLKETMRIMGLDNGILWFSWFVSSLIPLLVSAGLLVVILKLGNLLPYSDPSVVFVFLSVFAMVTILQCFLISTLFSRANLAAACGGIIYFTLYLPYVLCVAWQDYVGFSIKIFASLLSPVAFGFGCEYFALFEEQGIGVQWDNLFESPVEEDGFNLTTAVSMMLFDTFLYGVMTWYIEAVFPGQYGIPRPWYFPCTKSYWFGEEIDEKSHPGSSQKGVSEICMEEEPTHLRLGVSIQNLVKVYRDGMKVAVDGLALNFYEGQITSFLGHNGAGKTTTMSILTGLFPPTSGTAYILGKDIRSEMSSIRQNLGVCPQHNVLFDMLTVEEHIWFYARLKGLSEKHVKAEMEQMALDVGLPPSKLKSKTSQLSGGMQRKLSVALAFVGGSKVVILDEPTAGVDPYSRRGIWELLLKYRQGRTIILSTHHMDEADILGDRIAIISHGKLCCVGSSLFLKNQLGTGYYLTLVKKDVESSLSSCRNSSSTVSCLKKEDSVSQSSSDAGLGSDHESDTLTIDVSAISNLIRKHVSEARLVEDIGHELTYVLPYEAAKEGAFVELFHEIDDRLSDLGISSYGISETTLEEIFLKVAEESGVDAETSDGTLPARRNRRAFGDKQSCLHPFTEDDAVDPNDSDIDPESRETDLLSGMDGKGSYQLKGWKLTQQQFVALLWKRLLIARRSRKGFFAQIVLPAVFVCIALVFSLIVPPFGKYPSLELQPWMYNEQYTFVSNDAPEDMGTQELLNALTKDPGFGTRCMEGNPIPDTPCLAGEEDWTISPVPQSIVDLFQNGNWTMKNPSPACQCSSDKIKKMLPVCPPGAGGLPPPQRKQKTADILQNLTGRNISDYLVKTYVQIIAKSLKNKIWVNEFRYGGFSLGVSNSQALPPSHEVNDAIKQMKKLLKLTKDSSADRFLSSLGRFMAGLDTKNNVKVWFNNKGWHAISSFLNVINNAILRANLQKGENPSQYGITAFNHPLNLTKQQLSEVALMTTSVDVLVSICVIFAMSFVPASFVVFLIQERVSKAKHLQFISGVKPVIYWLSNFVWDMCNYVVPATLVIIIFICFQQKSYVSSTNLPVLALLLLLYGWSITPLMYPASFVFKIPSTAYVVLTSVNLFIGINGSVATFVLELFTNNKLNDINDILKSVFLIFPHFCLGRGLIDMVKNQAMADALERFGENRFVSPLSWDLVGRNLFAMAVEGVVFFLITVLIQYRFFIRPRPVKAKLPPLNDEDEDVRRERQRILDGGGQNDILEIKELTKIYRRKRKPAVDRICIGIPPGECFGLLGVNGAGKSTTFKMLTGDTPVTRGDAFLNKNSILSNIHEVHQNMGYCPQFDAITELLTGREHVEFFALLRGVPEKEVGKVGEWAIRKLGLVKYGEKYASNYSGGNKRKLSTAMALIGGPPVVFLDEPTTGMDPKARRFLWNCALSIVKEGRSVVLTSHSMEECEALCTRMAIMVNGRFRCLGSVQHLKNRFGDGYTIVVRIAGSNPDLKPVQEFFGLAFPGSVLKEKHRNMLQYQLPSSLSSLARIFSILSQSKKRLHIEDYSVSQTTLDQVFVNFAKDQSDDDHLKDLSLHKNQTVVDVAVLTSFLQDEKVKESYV
# These are yes or no findings as the source states them, for the method shown. In cells and extracts the contact can be indirect. Some entries that bind do so weakly or less than the wild type.
# Target: T1, caveolin-1 (mouse (endogenous in MAECs)) (UniProt P49817)
# T1 sequence: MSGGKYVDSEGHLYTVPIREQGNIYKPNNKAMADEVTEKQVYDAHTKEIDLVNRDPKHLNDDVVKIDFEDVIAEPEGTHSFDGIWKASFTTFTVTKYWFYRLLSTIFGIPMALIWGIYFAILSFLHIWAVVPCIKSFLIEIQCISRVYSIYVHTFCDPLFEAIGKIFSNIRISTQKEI
# Assay: co-IP; MAECs treated with vehicle medium or 20 ug/ml apoAI at 37°C for 16 h, cross-linked with 250 uM dithiobis(succinimidyl propionate), lysed in 50 mM Tris HCl pH 8, 150 mM NaCl, 1% TX100, 2 mM EDTA; lysate incubated with clean and then CAV1 antibody-associated Protein A/G Plus agarose beads; Western blot with ABCA1 and CAV1 antibodies
substance,measurement,value
ATP-binding cassette transport A1 (from UniProt P41233 1-2261),binding,binds
